# Test results taken from publication PMC6021247.
# No constants are given. Whether binding was seen depends on the method and setting. In cells and extracts the contact can be indirect. Sequences can lack the tags named with a protein.
# Target: T1, rabbit APOBEC1 fused to GFP (rA1-GFP) (rabbit) (UniProt P47855)
# T1 sequence: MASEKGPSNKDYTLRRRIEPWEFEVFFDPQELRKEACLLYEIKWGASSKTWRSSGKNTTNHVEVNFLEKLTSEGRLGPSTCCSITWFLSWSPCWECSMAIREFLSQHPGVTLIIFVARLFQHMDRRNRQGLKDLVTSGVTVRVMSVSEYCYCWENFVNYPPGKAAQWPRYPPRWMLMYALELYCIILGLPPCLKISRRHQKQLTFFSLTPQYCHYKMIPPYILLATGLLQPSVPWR
# Test: FRET or BRET; flow cytometry-based FRET (FRET-FACS); HEK-293T cells 48 hours after co-transfection of a Cherry-fusion and a GFP-fusion plasmid; percentage of FRET+ cells gated on Cherry+ and GFP+ cells
substance,measurement,value
rabbit APOBEC3A fused to Cherry (rA3A-Cherry) (enzyme),binding,no binding
